Laboratory results as given in article PMC6345998.
These are yes or no findings as the source states them, for the method shown. In cells and extracts the contact can be indirect.

Protein sequences, listed by entry. Tags and fused reporters are not part of them. Lines headed by an entry give the natural chain unless they say otherwise; changes in a name come on top.
UniProt Q9EPK5: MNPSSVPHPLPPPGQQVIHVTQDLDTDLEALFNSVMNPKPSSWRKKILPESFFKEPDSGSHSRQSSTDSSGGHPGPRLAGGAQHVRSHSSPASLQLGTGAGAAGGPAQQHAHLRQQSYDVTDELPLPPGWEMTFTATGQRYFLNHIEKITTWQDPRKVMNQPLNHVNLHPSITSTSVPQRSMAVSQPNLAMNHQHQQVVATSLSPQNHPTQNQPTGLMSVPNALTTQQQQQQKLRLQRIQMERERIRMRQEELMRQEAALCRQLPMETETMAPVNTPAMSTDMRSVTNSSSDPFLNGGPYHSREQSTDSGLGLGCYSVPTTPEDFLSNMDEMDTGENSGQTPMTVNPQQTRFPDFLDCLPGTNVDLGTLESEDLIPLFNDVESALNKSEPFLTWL
UniProt P05627: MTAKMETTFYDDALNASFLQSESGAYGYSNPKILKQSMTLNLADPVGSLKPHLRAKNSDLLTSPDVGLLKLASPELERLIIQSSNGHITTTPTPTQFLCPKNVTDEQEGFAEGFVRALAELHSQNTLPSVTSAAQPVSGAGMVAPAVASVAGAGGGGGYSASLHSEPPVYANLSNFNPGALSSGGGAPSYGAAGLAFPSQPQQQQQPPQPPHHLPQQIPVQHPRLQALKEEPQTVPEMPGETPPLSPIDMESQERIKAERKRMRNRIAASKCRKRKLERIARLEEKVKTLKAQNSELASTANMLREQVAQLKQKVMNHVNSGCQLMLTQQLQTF

Molecular target: WW domain-truncated TAZ (ΔWW) (UniProt Q9EPK5)
Test: co-IP; 293T cells co-transfected with FLAG-TAZ constructs and c-Jun; lysis in RIPA buffer; immunoprecipitation with anti-FLAG antibodies, blot with TAZ and c-Jun antibodies

binding: no binding
Substance: c-Jun (ectopically expressed) (from UniProt P05627 1-334)
